Results on one compound are retold here after patent publication US8802235B2, “Drug and imaging agent delivery compositions and methods” (priority 2012, dated 2014).

The subject of the test is MCF-7 cells. Put plainly: Cell growth inhibition (resazurin blue), MCF-7. Type of test: cell-based, human. The settings on record: 72 hours after drug addition. The method, then: Plates were seeded with 3,000 cells/well in 100 μL of media (12 replicates/sample). Drug or conjugate solutions were applied after 24 hours. […] The in vitro anti-proliferative activities of cisplatin, NO-donating prodrug, and their star polymer-based conjugates, including acid-Pt, acid-NO, and combinational acid-Pt/acid-NO were evaluated in cell culture using a human breast cancer cell line, MCF-7. […] The acid-Pt appeared to be less cytotoxic than cisplatin in the cells. This is likely due to the slow release of the active drug, which was not unexpected for a sustained-delivery platform. One of the obstacles that has not yet been overcome in infusion chemotherapy is the poor tumor penetration and accumulation of small-molecule anti-cancer agents. Usually the majority of the chemotherapeutics have been cleared from systemic circulation, via the kidneys, before a significant concentration of the anti-cancer agent is achieved in the tumorigenic tissues. However, the acid-Pt and acid-NO nanoconjugates may greatly enhance the intratumoral drug concentration compared to the normal tissues due to the Enhanced Permeability and Retention effect (EPR), in which nanoformulations tend to penetrate tumors more effectively via leaky, fenestrated tumor blood vessels. […]
For orientation: The colour change of resazurin is a common sign of viable cells or microbes.

What is called IC50 is the point on the concentration scale where inhibition reaches its midpoint.

In the case of `N.N.[Cl][Pt][Cl]` [cisplatin], the 50% inhibitory concentration (IC50) is 20 ± 4 µM.
